Reference: PubChem BioAssay AID540256 (National Center for Advancing Translational Sciences (NCATS), 2011)
Several values for one entry are separate records, joined by “and”; a condition that tells them apart may be missing. Equal values may be shown once. Among all 300,000 compounds or so, about 3,700 (1.2%) were called active. This list was built around the results that the source calls inconclusive (neither active nor inactive); the mix of calls is not that of the screen. Calls come from the whole dose curve; tested in HEK293 cells. A potency beside an inconclusive call is a rough fit, not a confirmed value.

Assay: qHTS for Inhibitors of binding or entry into cells for Lassa Virus; note: nearly all actives have a fitted effect of over 50% in size
Details: Lassa virus pseudotype entry inhibition, cell reporter; activity change, negative = inhibition: at 37.9 µM (top of the series) unless noted
% is set by controls: 0 for no effect and ±100 for the full control effect; potency is the fitted concentration of half-maximal effect.

Row | SMILES | Potency | activity change, negative = inhibition
1 | CCC1(c2ccc(F)cc2)NC(=O)N(CC(=O)Nc2ccc(N3CCCCC3)cc2)C1=O (configuration not stated) | inconclusive: 14.1 µM [inhibitor, partial curve, poor fit] | 
2 | CCOC(=O)c1ccc(Oc2nc(N(C)C)nc(N(C)C)n2)cc1 | inconclusive: 6.31 µM [activator, single point] | 
3 | COc1ccc(NC(=O)N2CCc3c([nH]c4ccc(OC)cc34)C2c2ccc(OC)cc2)cc1 (configuration not stated) | inconclusive: 3.98 µM [inhibitor, full curve, poor fit] | 
4 | COc1ccc(N2CCN(C(c3ccccc3OC)c3nnnn3Cc3ccco3)CC2)cc1 (configuration not stated) | inconclusive: 7.94 µM [inhibitor, partial curve, poor fit] | 
5 | CCOc1cc(NC(=O)CCl)c(OCC)cc1NC(C)=O | inconclusive: 11.2 µM [inhibitor, partial curve, poor fit] | 
6 | c1ccc(CSc2ccc(-c3ccco3)nn2)cc1 | inconclusive: 0.562 µM [activator, partial curve, poor fit] | 
7 | COc1ccccc1NS(=O)(=O)c1ccc(C)c(NC(=O)NC2CCCCC2)c1 | inconclusive: 20.6 µM [inhibitor, single point] | 
8 | CCOC(=O)CC(NC(=O)Cn1nnc(-c2ccc(C(F)(F)F)cc2)n1)c1ccc(C)cc1 (configuration not stated) |  | inactive: 11.4% [at 46.1 µM]
9 | CCCOc1cccc(C(=O)NCCNC(=O)c2ccco2)c1 | inconclusive: 12.6 µM [inhibitor, single point] | 
10 | O=S(=O)(N/N=C1\CC(c2ccccc2)Oc2ccccc21)c1ccccc1 (configuration not stated) |  | inactive: 2.89%
11 | COC(=O)[C@@H]1CC[C@H](C)[C@@H](c2ccc(C)cc2)N1C(=O)c1ccc(/C=N/OC[C@@H](O)COCc2ccco2)cc1 | inconclusive: 18.4 µM [inhibitor, single point] | 
12 | CCOC(=O)C1=C(CN2CCN(C(=O)c3ccco3)CC2)NC(=O)NC1c1ccc(Cl)cc1 (configuration not stated) | inconclusive: 8.91 µM [inhibitor, partial curve, poor fit] | 
13 | O=C(OCC1OC(n2cnc3c(N(C(=O)c4ccccc4)C(=O)c4ccccc4)ncnc32)C(O)C1F)c1ccccc1 (configuration not stated) | active: 13 µM | 
14 | O=C(c1ccc(Oc2ccccc2)cc1)c1nc2c(n1O)CCCC2 | inconclusive: 29.1 µM [activator, single point] | 
15 | OCCN1CCN(CC(O)COc2ccc3ccccc3c2)CC1 (configuration not stated) | inactive and inconclusive: 631 nM [inhibitor, full curve, poor fit] | 
16 | CC(NC(=O)Cc1ccc(F)cc1)c1ccccc1 (configuration not stated) |  | inactive: 6.74%
17 | S=C(c1ccc(N2CCOCC2)cc1)N1CCCCC1 | inconclusive: 12.6 µM [activator, single point] | 
18 | CC1(C)Cc2c(sc3nc(N/N=C/c4ccccc4)[nH]c(=O)c23)CO1 |  | inactive: -0.821%
19 | Nc1cc(-c2ccc(Br)cc2)nn1Cc1ccccc1 | inconclusive: 2.82 µM [inhibitor, full curve] | 
20 | O=c1c(Cl)c2oc3ccccc3nc-2c2ccccc12 |  | inactive: -16.1% [at 46.1 µM]
21 | OCCCn1c(-c2ccccc2)n[nH]c1=S |  | inactive: -0.864%

Row | SMILES | Potency | activity change, negative = inhibition
22 | COC(=O)C(Cc1ccccc1)N1CCS(=O)(=O)CC1 (configuration not stated) |  | inactive: 7.9%
23 | CCOc1ccc(NC(=O)C2CCCN2C(=O)NC2CCCCC2)cc1 (configuration not stated) | inconclusive: 3.55 µM [inhibitor, single point] | 
24 | O=C(NCc1ccoc1)c1ccc(NC(=O)c2ccccc2Cl)cc1 |  | inactive: -0.0971%
25 | Cc1ccc(S(=O)(=O)N2CCN(Cc3csc(C)n3)CC2)cc1 |  | inactive: 6.68%
26 | c1ccc(Cc2nn3c(-c4ccncc4)nnc3s2)cc1 | inconclusive: 6.51 µM [inhibitor, single point] | 
27 | CC(O)CNCCCOc1ccccc1OCc1ccccc1 (configuration not stated) | inconclusive: 0.891 µM [inhibitor, single point] | 
28 | COc1ccccc1OCC(=O)Nc1cccc(-c2nnc(-c3ccco3)o2)c1 | inconclusive: 14.1 µM [inhibitor, single point] | 
29 | S=C(Nc1cc(Cl)ccc1Oc1ccccc1)N1CCN(c2ccccn2)CC1 | inconclusive: 2.82 µM [inhibitor, full curve] | 
30 | COc1ccc(C2c3[nH]c4ccccc4c3CCN2C(=O)c2cc3ncccn3n2)c(F)c1 (configuration not stated) | inconclusive: 11.2 µM [inhibitor, single point] | 
31 | O=C(NCC(c1cccnc1)N1CCN(Cc2ccccc2)CC1)C(=O)Nc1cccc(F)c1 (configuration not stated) | inconclusive: 10 µM [inhibitor, partial curve, poor fit] | 
32 | NC(=O)c1c(NC(=O)CCCC(=O)O)sc2c1CCCCCC2 | inconclusive: 6.31 µM [activator, single point] | 
33 | Cc1cccc(/C=C/C(=O)c2cc(Br)ccc(=O)c2O)c1 | inconclusive: 35.5 µM [inhibitor, single point] | 
34 | C=CCOC(=O)C(C#N)c1nc2ccccc2nc1N1CCC(C(=O)OCC)CC1 (configuration not stated) | inconclusive: 6.31 µM [activator, partial curve, poor fit] | 
35 | CCCCc1nn2c(=O)cc(COC(=O)c3cccc(NC(=O)c4cccs4)c3)nc2s1 |  | inactive: -2.96% [at 46.1 µM]
36 | O=C1c2ccccc2C(=O)C1c1ccncc1 | inconclusive: 7.94 µM [inhibitor, partial curve] | 
37 | CC1=C(C(N)=O)C(c2cccs2)n2ncnc2N1 (configuration not stated) | inconclusive: 7.08 µM [activator, partial curve, poor fit] | 
38 | O=C(Cn1cncn1)N/N=C/c1cccc(Cl)c1 | inconclusive: 3.16 µM [inhibitor, single point] | 
39 | CN1CCN(C2=C(Cl)C(=O)c3ccccc3C2=O)CC1 | inconclusive: 11.2 µM [inhibitor, partial curve, poor fit] | 
40 | CCn1c(COc2ccc3c(c2)CCCC3)nnc1SCC(=O)Nc1nccs1 | inconclusive: 1.46 µM [activator, partial curve] | 
41 | CC1CN(Cc2cn(C)nc2-c2ccc(Oc3ccccc3)cc2)CCN1C (configuration not stated) | inconclusive: 3.98 µM [inhibitor, partial curve, poor fit] | 
42 | COc1cc2ccccc2cc1C(=O)N1CCN(c2nc3c(F)cccc3s2)CC1 | inconclusive: 0.891 µM [activator, full curve, poor fit] | 

2 records drawn at random from the list so far, as already listed:
Row | SMILES | Potency | activity change, negative = inhibition
13 | O=C(OCC1OC(n2cnc3c(N(C(=O)c4ccccc4)C(=O)c4ccccc4)ncnc32)C(O)C1F)c1ccccc1 (configuration not stated) | active: 13 µM | 
2 | CCOC(=O)c1ccc(Oc2nc(N(C)C)nc(N(C)C)n2)cc1 | inconclusive: 6.31 µM [activator, single point] | 
